PubChem BioAssay AID1159578, Peter MacCallum Cancer Centre – 2015
In all, the deposit lists about 18,000 reagents; below is a random part of them. Over the whole deposit, about 1,030 (5.7%) got an active call. 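Inactive calls also include pools with fewer than 3300 nuclei, whose migration was not assessed.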 Raw values vary from plate to plate and are shown uncorrected. Entries without a mark were called inactive. Not all columns of the deposit are shown.

Purpose: 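Knock-downs that alter how fast lymphatic endothelial cells migrate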 (primary screen)
Cell system: human lymphatic endothelial cells
Reagents: siRNA pool against human genes, 40 nM
Time to read-out: 48 h after transfection
Measurement: 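High-content imaging of dye-stained cells in a scratch assay measures filled wound area and nuclei per well; duplicate means given as ratio to mock and robust z-score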
Reading the numbers: migration robust z-score: higher = faster migration into the scratch; nuclei per well: higher = more cells in the well
Rule for the call: 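Migration changed when robust z exceeds 2 or falls below -2 and mean nuclei number is at least 3300; otherwise not called changed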
Meaning of the calls: active = migration changed; inactive = no migration change, or too few cells

CEACAM7 (CEA cell adhesion molecule 7)
- migration robust z-score: 0.14
- migration class with cell-count check: migration z between -2 and 2; enough cells
- nuclei per well, duplicate mean: 4211

MUC4 (mucin 4, cell surface associated)
- migration robust z-score: 0.14
- migration class with cell-count check: migration z between -2 and 2; enough cells
- nuclei per well, duplicate mean: 5536

FAM171A1 (family with sequence similarity 171 member A1)
- migration robust z-score: -0.18
- migration class with cell-count check: migration z between -2 and 2; enough cells
- nuclei per well, duplicate mean: 5946

SETMAR (SET and mariner transposase domain methyltransferase)
- migration robust z-score: 0
- migration class with cell-count check: migration z between -2 and 2; enough cells
- nuclei per well, duplicate mean: 6040

TMEM147 (transmembrane protein 147)
- migration robust z-score: 0.82
- migration class with cell-count check: migration z between -2 and 2; enough cells
- nuclei per well, duplicate mean: 6530

DEFB108B (defensin beta 108B)
- migration robust z-score: 1.34
- migration class with cell-count check: migration z between -2 and 2; enough cells
- nuclei per well, duplicate mean: 5880

MTERF4 (mitochondrial transcription termination factor 4)
- migration robust z-score: -0.67
- migration class with cell-count check: migration z between -2 and 2; enough cells
- nuclei per well, duplicate mean: 5158

CFP (complement factor properdin)
- migration robust z-score: 0.11
- migration class with cell-count check: migration z between -2 and 2; enough cells
- nuclei per well, duplicate mean: 6269

AGAP6 (ArfGAP with GTPase domain, ankyrin repeat and PH domain 6)
- migration robust z-score: 1.01
- migration class with cell-count check: migration z between -2 and 2; enough cells
- nuclei per well, duplicate mean: 6501

TMEM67 (transmembrane protein 67)
- migration robust z-score: -0.56
- migration class with cell-count check: migration z between -2 and 2; enough cells
- nuclei per well, duplicate mean: 3914

PSMC6 (proteasome 26S subunit, ATPase 6)
- migration robust z-score: -2.83 (active)
- migration class with cell-count check: migration z below -2; enough cells
- nuclei per well, duplicate mean: 4875

OR6C4 (olfactory receptor family 6 subfamily C member 4)
- migration robust z-score: 1.48
- migration class with cell-count check: migration z between -2 and 2; enough cells
- nuclei per well, duplicate mean: 5993

TMEM121B (transmembrane protein 121B)
- migration robust z-score: -2.48 (active)
- migration class with cell-count check: migration z below -2; enough cells
- nuclei per well, duplicate mean: 4518

EEF1E1 (eukaryotic translation elongation factor 1 epsilon 1)
- migration robust z-score: 0.05
- migration class with cell-count check: migration z between -2 and 2; enough cells
- nuclei per well, duplicate mean: 6102

SLC9A5
- migration robust z-score: 1.35
- migration class with cell-count check: migration z between -2 and 2; enough cells
- nuclei per well, duplicate mean: 6232

C11orf42 (chromosome 11 open reading frame 42)
- migration robust z-score: 0.2
- migration class with cell-count check: migration z between -2 and 2; enough cells
- nuclei per well, duplicate mean: 6064

ANP32E (acidic nuclear phosphoprotein 32 family member E)
- migration robust z-score: -0.13
- migration class with cell-count check: migration z between -2 and 2; enough cells
- nuclei per well, duplicate mean: 5936

ADSS2 (adenylosuccinate synthase 2)
- migration robust z-score: -1.06
- migration class with cell-count check: migration z between -2 and 2; enough cells
- nuclei per well, duplicate mean: 4330

ARRDC3 (arrestin domain containing 3)
- migration robust z-score: -0.08
- migration class with cell-count check: migration z between -2 and 2; enough cells
- nuclei per well, duplicate mean: 6643

MROH8 (maestro heat like repeat family member 8)
- migration robust z-score: 0.17
- migration class with cell-count check: migration z between -2 and 2; enough cells
- nuclei per well, duplicate mean: 4862

RPS6KA2 (ribosomal protein S6 kinase A2)
- migration robust z-score: -1.56
- migration class with cell-count check: under 3300 nuclei; migration not judged
- nuclei per well, duplicate mean: 2716

An excerpt from above, reduced to “nuclei per well, duplicate mean”:
SLC9A5 = 6232
C11orf42 (chromosome 11 open reading frame 42) = 6064
ANP32E (acidic nuclear phosphoprotein 32 family member E) = 5936
